No constants are given. Whether binding was seen depends on the method and setting. In cells and extracts the contact can be indirect.
Target: lamin A/C (UniProt P02545)
Test: co-IP; coimmunoprecipitation of TDP-43 and lamin A/C; no methods, conditions or figure given

By UniProt entry, the sequences of proteins in these tests, tags left out. Residues count along the entry.
UniProt P02545, residues 1-646: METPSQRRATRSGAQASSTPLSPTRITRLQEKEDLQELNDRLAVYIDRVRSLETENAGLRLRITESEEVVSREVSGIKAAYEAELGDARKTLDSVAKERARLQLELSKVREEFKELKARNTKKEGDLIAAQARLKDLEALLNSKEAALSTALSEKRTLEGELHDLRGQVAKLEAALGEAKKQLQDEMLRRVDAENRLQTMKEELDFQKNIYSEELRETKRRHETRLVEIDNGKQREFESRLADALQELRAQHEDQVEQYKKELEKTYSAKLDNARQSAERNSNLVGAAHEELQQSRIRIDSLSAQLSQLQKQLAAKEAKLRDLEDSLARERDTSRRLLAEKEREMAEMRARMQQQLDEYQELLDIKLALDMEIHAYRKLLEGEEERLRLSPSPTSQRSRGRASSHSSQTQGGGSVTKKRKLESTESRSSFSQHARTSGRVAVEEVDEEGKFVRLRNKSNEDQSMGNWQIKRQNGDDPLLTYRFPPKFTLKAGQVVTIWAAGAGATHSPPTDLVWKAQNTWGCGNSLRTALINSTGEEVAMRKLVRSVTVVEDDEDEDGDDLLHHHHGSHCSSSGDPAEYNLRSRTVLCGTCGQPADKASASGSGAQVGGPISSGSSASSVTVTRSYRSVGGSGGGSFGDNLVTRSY
UniProt Q13148: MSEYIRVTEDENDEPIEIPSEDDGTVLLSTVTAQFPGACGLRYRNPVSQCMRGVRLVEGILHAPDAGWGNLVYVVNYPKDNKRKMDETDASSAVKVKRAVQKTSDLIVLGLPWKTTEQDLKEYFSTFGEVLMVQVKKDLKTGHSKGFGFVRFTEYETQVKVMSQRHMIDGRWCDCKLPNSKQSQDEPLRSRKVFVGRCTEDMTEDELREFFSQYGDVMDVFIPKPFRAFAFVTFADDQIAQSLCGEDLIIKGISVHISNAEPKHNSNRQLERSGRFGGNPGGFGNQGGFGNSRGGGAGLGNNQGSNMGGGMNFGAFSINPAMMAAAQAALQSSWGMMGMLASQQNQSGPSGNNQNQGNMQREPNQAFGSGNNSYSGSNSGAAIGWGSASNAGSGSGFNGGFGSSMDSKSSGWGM

TDP-43 (from UniProt Q13148 1-414)
binding: no binding
